PubChem BioAssay AID504786, Drosophila RNAi Screening Center | 2011
Purpose: 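Fly genes required for HIF-dependent transcription when hypoxia is mimicked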 (primary screen). System: Drosophila S2 cells with a stable HIF luciferase reporter. Reagent: long dsRNA against Drosophila genes, about 0.2 µg dsRNA per well of a 384-well plate. Timing: three days of knock-down, then 20 h of DFO before reading. Treatment: desferrioxamine (DFO) at 100 µM, an iron chelator that mimics hypoxia, for 20 h. Measurement: 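HIF reporter luminescence in cells given 100 µM DFO for 20 h, using the mouse ldh-a hypoxia-response element, scored as per-plate z-scores; higher means greater loss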. Reading the numbers: z-score: higher = stronger loss of HIF reporter signal.
In all, the deposit lists about 21,000 reagents; this is a random part of those with a known target gene and a result. 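Primary screen; positive scores mean lost reporter signal, so the sign may be inverted from the usual convention.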 The numbers tell different reagents against one gene apart. A plus sign joins genes that one reagent is predicted to hit. Not all columns of the deposit are shown.

THADA
- z-score, replicate 1: -0.4

CG31917 + Tfb5 #1
- z-score, replicate 1: -0.4

CG31917 + Tfb5 #2
- z-score, replicate 1: -0.2

RluA-1 #1
- z-score, replicate 1: -0.2

RluA-1 #2
- z-score, replicate 1: -0.3

Hr83
- z-score, replicate 1: -0.4

ND4 (retired record)
- z-score, replicate 1: -0.3

CG9008
- z-score, replicate 1: -0.4

CG18823
- z-score, replicate 1: -0.4

Rpn12
- z-score, replicate 1: 7.1

Lsm11
- z-score, replicate 1: -0.1

Pask
- z-score, replicate 1: -0.2

Ate1
- z-score, replicate 1: 0.1

SmydA-9
- z-score, replicate 1: -0.2

tefu
- z-score, replicate 1: -0.5

CG32213 + CG12519 + 825-Oak + 1 more
- z-score, replicate 1: -0.1

CG14417
- z-score, replicate 1: -0.2

escl
- z-score, replicate 1: -0.3

CG4393
- z-score, replicate 1: -0.4

CG7492
- z-score, replicate 1: -0.3

CG32119
- z-score, replicate 1: -0.1

RpL18A
- z-score, replicate 1: 6.4

Set1 #1
- z-score, replicate 1: -0.2

Set1 #2
- z-score, replicate 1: -0.4

CG32284
- z-score, replicate 1: -0.3

CG2278
- z-score, replicate 1: -0.2

CG15221
- z-score, replicate 1: -0.3

rogdi
- z-score, replicate 1: -0.3

inaF-B + inaF-D + inaF-C + 1 more
- z-score, replicate 1: -0.4

Jon74E
- z-score, replicate 1: -0.3

sax
- z-score, replicate 1: -0.4

elfless
- z-score, replicate 1: -0.1

spab
- z-score, replicate 1: -0.4

CG9254
- z-score, replicate 1: -0.3

aPKC #1
- z-score, replicate 1: -0.2

aPKC #2
- z-score, replicate 1: -0.3

CG30076
- z-score, replicate 1: -0.1

Smyd5
- z-score, replicate 1: 0.5

CG17770 + Acam #1
- z-score, replicate 1: -0.3

CG17770 + Acam #2
- z-score, replicate 1: -0.3
